No constants are given. Whether binding was seen depends on the method and setting. In cells and extracts the contact can be indirect.
Legend:
[1] = target: glucagon like peptide-1 receptor (GLP-1R), endogenous in HT22 cells (mouse (endogenous in HT22)) (UniProt O35659); assay: co-IP; PC12 or HT22 cell lysate (kit lysis buffer); anti-GLP-1R primary antibody, complex captured on protein A beads, boiled; western blot for RAGE
[2] = target: glucagon like peptide-1 receptor (GLP-1R), endogenous in PC12 cells (rat (endogenous in PC12)) (UniProt P32301); assay: as above

Protein sequences, listed by entry. Tags and fused reporters are not part of them. Residues count along the entry.
UniProt O35659, residues 22-463: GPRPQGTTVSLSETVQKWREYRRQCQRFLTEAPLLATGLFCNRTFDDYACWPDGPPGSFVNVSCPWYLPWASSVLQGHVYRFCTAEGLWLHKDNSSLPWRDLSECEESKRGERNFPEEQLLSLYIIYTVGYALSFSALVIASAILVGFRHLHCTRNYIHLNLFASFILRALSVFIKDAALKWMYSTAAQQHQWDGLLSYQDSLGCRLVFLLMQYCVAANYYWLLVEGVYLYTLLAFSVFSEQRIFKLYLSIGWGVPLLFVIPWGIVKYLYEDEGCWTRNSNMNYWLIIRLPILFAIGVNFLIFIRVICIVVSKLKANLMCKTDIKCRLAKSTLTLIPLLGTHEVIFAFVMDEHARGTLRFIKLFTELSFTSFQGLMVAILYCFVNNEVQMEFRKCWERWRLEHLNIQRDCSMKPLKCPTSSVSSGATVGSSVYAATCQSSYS
UniProt P32301, residues 22-463: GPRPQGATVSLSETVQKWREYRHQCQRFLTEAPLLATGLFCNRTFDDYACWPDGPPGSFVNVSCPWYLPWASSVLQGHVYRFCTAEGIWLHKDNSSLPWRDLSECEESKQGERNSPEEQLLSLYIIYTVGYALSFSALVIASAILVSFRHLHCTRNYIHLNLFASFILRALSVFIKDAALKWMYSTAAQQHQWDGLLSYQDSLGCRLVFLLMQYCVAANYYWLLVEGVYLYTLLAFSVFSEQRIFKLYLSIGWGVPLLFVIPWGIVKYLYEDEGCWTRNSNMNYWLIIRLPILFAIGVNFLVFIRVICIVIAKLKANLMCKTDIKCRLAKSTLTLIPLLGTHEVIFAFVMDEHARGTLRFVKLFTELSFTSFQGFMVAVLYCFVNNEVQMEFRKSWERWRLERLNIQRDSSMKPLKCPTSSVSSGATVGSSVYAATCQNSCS
UniProt Q62151, residues 23-402: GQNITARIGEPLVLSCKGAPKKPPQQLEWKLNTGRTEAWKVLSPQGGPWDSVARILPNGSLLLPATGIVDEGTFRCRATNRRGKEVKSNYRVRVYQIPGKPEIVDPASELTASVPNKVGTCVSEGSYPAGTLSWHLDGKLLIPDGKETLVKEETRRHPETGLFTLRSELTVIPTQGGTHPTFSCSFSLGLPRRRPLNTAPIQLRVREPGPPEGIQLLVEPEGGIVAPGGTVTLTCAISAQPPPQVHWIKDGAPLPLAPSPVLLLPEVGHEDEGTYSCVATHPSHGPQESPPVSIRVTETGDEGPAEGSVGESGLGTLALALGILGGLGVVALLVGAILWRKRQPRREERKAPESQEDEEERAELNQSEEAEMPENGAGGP
UniProt Q63495, residues 23-402: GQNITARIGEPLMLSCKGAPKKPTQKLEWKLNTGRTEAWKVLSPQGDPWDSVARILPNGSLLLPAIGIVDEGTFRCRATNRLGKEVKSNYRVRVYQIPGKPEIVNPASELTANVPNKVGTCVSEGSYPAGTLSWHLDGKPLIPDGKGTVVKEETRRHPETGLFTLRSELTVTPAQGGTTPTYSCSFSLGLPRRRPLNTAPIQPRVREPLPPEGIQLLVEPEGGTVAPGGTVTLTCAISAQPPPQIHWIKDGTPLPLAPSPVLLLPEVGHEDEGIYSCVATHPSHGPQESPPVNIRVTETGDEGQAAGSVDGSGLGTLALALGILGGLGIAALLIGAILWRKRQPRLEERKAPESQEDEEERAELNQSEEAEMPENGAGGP

binding [1]	binding [2]	Substance
no binding	–	receptor of advanced glycation end products (RAGE), endogenous in HT22 cells (from UniProt Q62151 23-402)
–	no binding	receptor of advanced glycation end products (RAGE), endogenous in PC12 cells (from UniProt Q63495 23-402)

From publication PMC7835012
